Paper PMC7316369

Amino acid sequences for entries named in this document (tags omitted). A change or cut given only in a name is not applied to a line headed by its entry. Residues count along the entry.
UniProt Q8NBP7: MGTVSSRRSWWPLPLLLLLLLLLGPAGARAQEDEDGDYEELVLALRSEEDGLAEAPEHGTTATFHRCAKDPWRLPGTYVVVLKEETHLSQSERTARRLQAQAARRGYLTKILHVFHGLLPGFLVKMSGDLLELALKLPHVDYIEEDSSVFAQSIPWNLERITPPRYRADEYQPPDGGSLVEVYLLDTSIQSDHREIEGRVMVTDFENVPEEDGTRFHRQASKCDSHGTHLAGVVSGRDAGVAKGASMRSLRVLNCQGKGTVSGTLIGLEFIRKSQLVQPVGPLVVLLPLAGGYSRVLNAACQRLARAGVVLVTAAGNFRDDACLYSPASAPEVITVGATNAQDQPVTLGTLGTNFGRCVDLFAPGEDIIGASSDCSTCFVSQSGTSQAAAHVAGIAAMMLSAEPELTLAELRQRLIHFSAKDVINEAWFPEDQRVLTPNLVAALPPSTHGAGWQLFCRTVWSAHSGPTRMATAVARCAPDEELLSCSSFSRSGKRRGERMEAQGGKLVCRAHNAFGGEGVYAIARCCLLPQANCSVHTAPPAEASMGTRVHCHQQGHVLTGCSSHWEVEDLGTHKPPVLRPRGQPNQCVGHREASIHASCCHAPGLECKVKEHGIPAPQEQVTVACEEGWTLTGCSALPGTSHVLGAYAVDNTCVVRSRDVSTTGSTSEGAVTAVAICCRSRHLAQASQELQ
UniProt P01009, residues 25-418: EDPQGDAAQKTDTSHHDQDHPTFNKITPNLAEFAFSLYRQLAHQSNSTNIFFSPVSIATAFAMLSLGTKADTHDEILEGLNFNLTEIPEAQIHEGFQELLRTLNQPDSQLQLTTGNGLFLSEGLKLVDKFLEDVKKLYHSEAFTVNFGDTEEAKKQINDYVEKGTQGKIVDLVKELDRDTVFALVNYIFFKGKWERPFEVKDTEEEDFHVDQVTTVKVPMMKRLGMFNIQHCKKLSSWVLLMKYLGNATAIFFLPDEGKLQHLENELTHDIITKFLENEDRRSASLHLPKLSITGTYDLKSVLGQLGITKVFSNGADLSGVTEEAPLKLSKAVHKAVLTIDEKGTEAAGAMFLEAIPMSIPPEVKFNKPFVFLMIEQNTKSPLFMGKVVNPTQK
UniProt P02749, residues 20-345: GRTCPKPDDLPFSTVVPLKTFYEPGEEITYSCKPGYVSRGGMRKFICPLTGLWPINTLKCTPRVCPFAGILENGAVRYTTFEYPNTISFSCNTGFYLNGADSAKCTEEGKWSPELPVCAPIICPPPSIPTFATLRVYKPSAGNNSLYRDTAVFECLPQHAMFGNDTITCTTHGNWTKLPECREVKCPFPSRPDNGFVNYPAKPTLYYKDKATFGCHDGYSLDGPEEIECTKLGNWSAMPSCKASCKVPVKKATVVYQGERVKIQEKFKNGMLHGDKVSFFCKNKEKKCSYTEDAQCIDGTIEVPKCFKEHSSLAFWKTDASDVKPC

B1: alpha-1-microglobulin/bikunin precursor (protein, UniProt P02760 20-352)
chain: GPVPTPPDNIQVQENFNISRIYGKWYNLAIGSTCPWLKKIMDRMTVSTLVLGEGATEAEISMTSTRWRKGVCEETSGAYEKTDTDGKFLYHKSKWNITMESYVVHTNYDEYAIFLTKKFSRHHGPTITAKLYGRAPQLRETLLQDFRVVAQGVGIPEDSIFTMADRGECVPGEQEPEPILIPRVRRAVLPQEEEGSGGGQLVTEVTKKEDSCQLGYSAGPCMGMTSRYFYNGTSMACETFQYGGCMGNGNNFVTEKECLQTCRTVAACNLPIVRGPCRAFIQLWAFDAVKGKCVLFPYGGCQGNGNKFYSEKECREYCGVPGDGDEELLRFSN

Assays:
[1] = biological target: recombinant (r) PCSK9 carrier-free (CF) protein (UniProt Q8NBP7); assay: affinity purification with mass spectrometry; His-tagged rPCSK9 held on HisPur Ni-NTA resin at 4 °C; concentrated medium proteins at pH 5.0 passed three times; wash 25 mM imidazole, elution 250 mM imidazole; fractions 2-8 pooled, LC-MS/MS; only the target purified
[2] = biological target: recombinant (r) PCSK9 carrier-free (CF) protein (UniProt Q8NBP7); assay: affinity purification with mass spectrometry; His-tagged rPCSK9 held on HisPur Ni-NTA resin at 4 °C; concentrated medium proteins at pH 7.4 passed three times; wash 25 mM imidazole, elution 250 mM imidazole; fractions 2-8 pooled, LC-MS/MS; only the target purified

Molecule | binding [1] | binding [2]
alpha-1-antitrypsin (from UniProt P01009 25-418) | binds | binds
apolipoprotein H (from UniProt P02749 20-345) | binds | –
B1 | binds | binds

These are yes or no findings as the source states them, for the method shown. In cells and extracts the contact can be indirect. These calls come from enrichment with a bait or labelling near it, and not all partners need be listed.
